Data reported in article PMC10085685.
No constants are given. Whether binding was seen depends on the method and setting. Some binding calls cover weakened binding; strength is not graded here. Tags and fused reporters may be left off the sequences shown.

Molecular target: T1, AtMHF2, yeast two-hybrid fusion (Arabidopsis thaliana) (UniProt Q8L7N3)
T1 sequence: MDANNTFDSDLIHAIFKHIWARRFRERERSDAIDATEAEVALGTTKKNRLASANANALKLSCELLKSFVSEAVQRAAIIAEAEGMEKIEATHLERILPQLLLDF
Assay: two-hybrid; Gal4-based system (Clontech), haploid strains AH109 and Y187 mated to a diploid strain; pGADT7-GW / PACT2 AD and pGBKT7(-GW) fusions

- binding: binds
B1: AtFANCE, yeast two-hybrid fusion (protein, UniProt Q9SU89 1-493)
chain: MEEWIPLFDIFLKSPSPEAEASLWLDQASNLFSSSSSAAAPINRSSFVSLLKKQCDQNSSPVTKKVLFIETLPNMVQSKILSFLLFEYQRFCVSDLVWLAREMLGSGGNKVVDFWVQRDAHNLLDRIPKPKFEWISNLDLDSADEDSMKQVFDSVPDWLSEKLGSAGTILPWLPVSCDDVDSEMLVVDSWNGKEITQIKEDMEEDQREVVHNIDHTMTVGLQAHDHEMAVNLRAQISNFESTSEVLTLCNDIRRLCLEKGKDSLRVLALIEPWNADDETAAVLLSSLHNGSEEEELGWPSHVLCSIVLPKFLSLEKSASRVLMSSTIEFCKIHQRAAEYALVFPLILRKEGINNFICEVISRVLKECLHLGQISGFCQKLLCGRTQERRFMFLPCHRDLISDELTWNEYLFILFQNILIHGIPLSQDSVDCLVSKVQELAERYSKSLKFGNFLLHFTAKCAPMLQAHKYQLIESVKCTNSLVTKSILSKLNAL
